For test [1], the target named is recombinant human Dsg1 (human) (UniProt Q02413). Briefly: ELISA; plates coated with 0.1 μg recombinant protein in carbonate-bicarbonate buffer (0.1 M, pH 9.6) at 4°C overnight; incubated with decreasing concentrations of rPpSP32 (or CFP32) for 1 hour at 37°C; detected with human sera containing anti-PpSP32 or anti-CFP32 antibodies; both purified.
Test [2] deals with T1, recombinant human Dsg3 (human) (UniProt P32926).
T1 sequence: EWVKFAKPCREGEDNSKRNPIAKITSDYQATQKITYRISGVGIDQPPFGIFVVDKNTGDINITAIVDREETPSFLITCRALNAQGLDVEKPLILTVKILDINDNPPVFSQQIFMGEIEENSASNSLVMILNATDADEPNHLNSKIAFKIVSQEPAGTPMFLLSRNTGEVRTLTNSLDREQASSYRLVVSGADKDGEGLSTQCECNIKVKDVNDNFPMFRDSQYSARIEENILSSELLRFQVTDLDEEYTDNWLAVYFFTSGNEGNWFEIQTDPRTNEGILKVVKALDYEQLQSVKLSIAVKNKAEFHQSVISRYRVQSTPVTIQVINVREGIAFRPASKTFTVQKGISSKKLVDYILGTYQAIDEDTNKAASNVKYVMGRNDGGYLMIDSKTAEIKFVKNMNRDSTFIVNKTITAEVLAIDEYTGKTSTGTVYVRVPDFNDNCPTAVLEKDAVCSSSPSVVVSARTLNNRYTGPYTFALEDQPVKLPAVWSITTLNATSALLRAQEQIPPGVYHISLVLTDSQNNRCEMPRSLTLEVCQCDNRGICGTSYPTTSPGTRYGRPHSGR
The description is as above.

By UniProt entry, the sequences of proteins in these tests, tags left out. Residues count along the entry.
UniProt Q02413, residues 50-548: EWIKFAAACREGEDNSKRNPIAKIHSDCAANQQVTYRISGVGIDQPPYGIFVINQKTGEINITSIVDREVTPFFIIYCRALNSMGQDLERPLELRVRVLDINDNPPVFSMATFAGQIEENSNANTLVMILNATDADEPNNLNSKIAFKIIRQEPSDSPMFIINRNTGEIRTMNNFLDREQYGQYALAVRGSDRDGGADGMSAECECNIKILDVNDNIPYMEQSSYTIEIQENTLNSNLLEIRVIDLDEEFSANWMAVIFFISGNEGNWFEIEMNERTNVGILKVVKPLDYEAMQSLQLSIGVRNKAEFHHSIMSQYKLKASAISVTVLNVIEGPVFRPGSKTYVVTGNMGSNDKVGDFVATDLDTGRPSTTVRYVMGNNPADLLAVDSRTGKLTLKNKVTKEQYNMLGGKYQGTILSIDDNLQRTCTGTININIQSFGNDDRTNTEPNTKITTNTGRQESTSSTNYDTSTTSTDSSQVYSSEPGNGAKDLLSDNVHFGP

The source of these data is PMC7714401.

No constants are given. Whether binding was seen depends on the method and setting. Sequences can lack the tags named with a protein.

B1: recombinant form of the CFP32 protein of Mycobacterium tuberculosis (protein, UniProt P9WIR3 1-261)
chain: MPKRSEYRQGTPNWVDLQTTDQSAAKKFYTSLFGWGYDDNPVPGGGGVYSMATLNGEAVAAIAPMPPGAPEGMPPIWNTYIAVDDVDAVVDKVVPGGGQVMMPAFDIGDAGRMSFITDPTGAAVGLWQANRHIGATLVNETGTLIWNELLTDKPDLALAFYEAVVGLTHSSMEIAAGQNYRVLKAGDAEVGGCMEPPMPGVPNHWHVYFAVDDADATAAKAAAAGGQVIAEPADIPSVGRFAVLSDPQGAIFSVLKPAPQQ
In the case of B1, the binding result in test [1] and in test [2] was “no binding” throughout.
